For the assay, the target named is human MMP-14 (human). Nature of the assay: phage display selection and phage ELISA screening on biotinylated MMP-14. (In general: ELISA stands for enzyme-linked immunosorbent assay.)

Numbering of substitutions follows the chain as printed. These are yes or no findings as the source states them, for the method shown. A result given as binding can be weak or reduced; the word gives no strength.

B1: M0040-C10 Fab (Fab, V domains shown)
VH: EVQLLESGGGLVQPGGSLRLSCAASGFTFSRYMMVWVRQAPGKGLEWVSSIVSSGGKTWYADSVKGRFTISRDNSKNTLYLQMNSLRAEDTAMYYCARWDWGPFDYWGQGTLVTVSS
VL: DIQMTQSPATLSASVGDRVTITCRASQTISTYLNWYQHKPGKAPELLIYAASSLQSGVPSRFSGSGSGTDFTLRISSLQPEDFATYYCQQSYTTPWTFGQGTKVEIK
In the case of B1, the binding result is listed as “binds”.

B2: M0038-B06 Fab (Fab, V domains shown)
VH: EVQLLESGGGLVQPGGSLRLSCAASGFTFSSYVMGWVRQAPGKGLEWVSVISPSGGWTTYADSVKGRFTISRDNSKNTLYLQMNSLRAEDTATYYCASRGVVTNLDYWGQGTLVTVSS
VL: DIQMTQSPSSLSASVGDRVTITCRASQSISSYLNWYQQKPGKAPKLLIYAASSLQSGVPSRFRGSGSGTDFSLTISSLQPEDFATYYCQQTYSGLPTFGGGTVVEIK
For B2, the binding entry is reported as “binds”.

B3: M0041-A05 Fab (Fab, V domains shown)
VH: EVQLLESGGGLVQPGGSLRLSCAASGFTFSVYTMHWVRQAPGKGLEWVSVIYPSGGLTIYADSVKGRFTISRDNSKNTLYLQMNSLRAEDTAVYYCARNRGYYAPMDVWGQGTTVTVSS
VL: DIQMTQSPSSLSASVGDRVTITCRASQNINSYLNWYQQKPGKAPKLLIYAASSLQSGVPSRFSGSGSGTDFTLTISSLQPEDFVTYYCQQSYSTPKTFGQGTKVEIK
On to B3, for which the binding result is “binds”.

B4: M0038-C05 Fab (Fab, V domains shown)
VH: EVQLLESGGGLVQPGGSLRLSCAASGFTFSSYIMVWVRQAPGKGLEWVSVIYPSGGPTYYADSVKGRFTISRDNSKNTLYLQMNSLRAEDTAVYYCARDPRLERFYFDYWGQGTLVTVSS
VL: DIQMTQSPSSLSASVGDRVTITCRASQSISSYLNWYQQKPGKAPKLLIYAASSLQSGVPSRFSGSGSGTDFTLTISRLEPEDFAVYYCQQYGSSPTFGQGTKVEIK
For the molecule B4, the binding entry is listed as “binds”.

B5: M0037-C03 Fab (Fab, V domains shown)
VH: EVQLLESGGGLVQPGGSLRLSCAASGFTFSMYLMIWVRQAPGKGLEWVSVISSSGGQTKYADSVKGRFTISRDNSKNTLYLQMNSLRAEDTAVYYCARTDLTGYSAGAFDIWGQGTMVTVSS
VL: DIQMTQSPSSVSASVGDRVTITCRASQGISSWLAWYQQKPGKAPKLLIYAASSLQSGVPSRFSGSGSGTDFTLTISSLQPEDFATYYCQQANSFPFVTFGQGTKLEIK
With B5, the binding entry is “binds”.

B6: M0038-E05 Fab (Fab, V domains shown)
VH: EVQLLESGGGLVQPGGSLRLSCAASGFTFSPYHMTWVRQAPGKGLEWVSSISSSGGHTEYADSVKGRFTISRDNSKNTLYLQMNSLRAEDTAVYYCATAWAGFTFNVWGQGTMVTVSS
VL: DIQMTQSPSSVSASVGDRVTITCRASQHISNWLAWYQQKPGEAPKLLISAASSLQSGVPSRFSGSGSGTDFTLTISSLQPEDFATYYCQQSYSTPLTFGGGTKVEIK
Take B6: the binding entry is reported as “binds”.

B7: M0041-B03 Fab (Fab, V domains shown)
VH: EVQLLESGGGLVQPGGSLRLSCAASGFTFSMYMMWWVRQAPGKGLEWVSVISSSGGFTSYADSVKGRFTISRDNSKNTLYLQMNSLRAEDTAVYYCARLRYSNFVGGLDVWGQGTTVTVSS
VL: DIQMTQSPATLSASVGDRVTISCRASQNISNWLAWYQQKPGKAPKLLIYTASTLHRGVPSRFSGSGSGTDFTLTITSLQPEDFATYYCQQANTFPWTFGQGTKVEIK
Consider B7, for which the binding result is on record as “binds”.

B8: M0040-H09 Fab (Fab, V domains shown)
VH: EVQLLESGGGLVQPGGSLRLSCAASGFTFSLYPMQWVRQAPGKGLEWVSYIRSSGGKTHYADSVKGRFTISRDNSKNTLYLQMNSLRAEDTAVYYCARVGMGSGWYTGYFDLWGRGTLVTVSS
VL: QSELTQDPAVSVALGQAVIITCQGDSLRTYYPSWYQQKPGQAPTLLVYGKNKRPSGVPDRFSGSRSGDTASLIITGAQAEDDADYYCNSRDGSGHLFVFGPGTTVTVL
B8: the binding entry is on record as “binds”.

B9: M0041-B11 Fab (Fab, V domains shown)
VH: EVQLLESGGGLVQPGGSLRLSCAASGFTFSQYSMHWVRQAPGKGLEWVSSIVPSGGMTAYADSVKGRFTISRDNSKNTLYLQMNSLRAEDTAVYYCAKISRGNDAFDIWGQGTMVTVSS
VL: QSVLTQDPAVSVALGQTVRITCQGDSLRSYSASWYQRKPGQAPLLVIYRKTNRPSGIPDRFSGSSSGNTASLTITGAQAEDESDYYCNSRDSSGNHLFGGGTKLTVL
Consider B9, for which the binding entry is “binds”.

B10: M0040-D08 Fab (Fab, V domains shown)
VH: EVQLLESGGGLVQPGGSLRLSCAASGFTFSHYGMTWVRQAPGKGLEWVSSIVPSGGYTAYADSVKGRFTISRDNSKNTLYLQMNSLRAEDTAVYYCTTGLSSSGTRWFDAWGQGTLVTVSS
VL: QSALTQSPSASASLGSSVKLTCTLASEHSGYIIAWHQQQPGKAPRFLMKLDGTGNFNKGSGVPDRFSGYSSGADRYLTISNLQSEDEADYYCETWDSTTLWVFGGGTKLTVL
Consider B10, for which the binding result was “binds”.

B11: M0036-F02 Fab (Fab, V domains shown)
VH: EVQLLESGGGLVQPGGSLRLSCAASGFTFSRYTMGWVRQAPGKGLEWVSRIYSSGGNTVYADSVKGRFTISRDNSKNTLYLQMNSLRAEDTATYYCARTRRDGYNPFDYWGQGTLVTVSS
VL: QYELTQPPSLSVSPGQTASITCSGEKLGEKFASWYQRRPGQSPLLIIYQDNKRPSGIPERFSGSNSGNTAALTITGTQAMDDADYYCQAWESTTAVFGGGTKLTVL
B11: the binding result is recorded as “binds”.

B12: M0037-B10 Fab (Fab, V domains shown)
VH: EVQLLESGGGLVQPGGSLRLSCAASGFTFSVYYMGWVRQAPGKGLEWVSYIGSSGGWTEYADSVKGRFTISRDNSKNTLYLQMNSLRAEDTAVYYCARDLSAVAGLGGAFDIWGQGTMVTVSS
VL: DIQMTQSPSSLSASVGDRVAITCRASQSIDTYLNWYQQKPGKAPKLLIYAASKLEDGVPSRFSGSGTGTDFTLTIRSLQPEDFASYFCQQSYSSPGITFGPGTKVEIK
Turning to B12, the binding entry is “binds”.

B13: M0040-A03 Fab (Fab, V domains shown)
VH: EVQLLESGGGLVQPGGSLRLSCAASGFTFSNYMMIWVRQAPGKGLEWVSWISPSGGYTFYADSVKGRFTISRDNSKNTLYLQMNSLRAEDTAVYYCARGYYDILTGMVGGGAFDIWGQGTTVTVSS
VL: DIQMTQSPSFVSASVGDRVTISCRASHNINTWLAWYQQKPGKAPNLLIYSASNLQGGVPSRFSGSGSGTDFTLTISSLQPGDFATYYCQQASSFPITFGQGTRLEIK
With B13, the binding entry was “binds”.

B14: M0040-H04 Fab (Fab, V domains shown)
VH: EVQLLESGGGLVQPGGSLRLSCAASGFTFSSYDMVWVRQAPGKGLEWVSSISPSGGNTQYADSVKGRFTISRDNSKNTLYLQMNSLRAEDTAVYYCAKVAAMAPWYFDYWGQGTLVTVSS
VL: DIQMTQSPDSLAVSLGERATLNCRSSQSVLYSPNNKNYLAWYQQKAGQPPKLLIYWASFRESGVPERFSGSGSGTDFTLTISSLQAEDVAVYYCQQYHTPPWTFGQGTKVEIK
As for B14, the binding entry is “binds”.

B15: M0035-F02 Fab (Fab, V domains shown)
VH: EVQLLESGGGLVQPGGSLRLSCAASGFTFSFYRMEWVRQAPGKGLEWVSSIVPSGGFTRYADSVKGRFTISRDNSKNTLYLQMNSLRAEDTAVYYCARFHVLRYFDWFGNTQDTDAFDIWGQGTLVTVSS
VL: DIQMTQSPATLSLSPGERATLSCRASQSVSNYLAWYQQKPGQAPRLLIYDASNRATGIPARFSGSGSGTDFTLTISSLEPEDFAVYYCQQRSNWPLTFGGGTKVEIK
Regarding B15, the binding result was “binds”.

B16: M0038-D06 Fab (Fab, V domains shown)
VH: EVQLLESGGGLVQPGGSLRLSCAASGFTFSWYYMGWVRQAPGKGLEWVSYIGSSGGMTGYADSVKGRFTISRDNSKNTLYLQMNSLRAEDTATYYCAMVGFLPTVDYWGQGTLVTVSS
VL: B15 VL with N31S, G100Q, K103R, V104L
Consider B16, for which the binding result was “binds”.

B17: M0039-G07 Fab (Fab, V domains shown)
VH: EVQLLESGGGLVQPGGSLRLSCAASGFTFSRYVMDWVRQAPGKGLEWVSRISPSGGHTDYADSVKGRFTISRDNSKNTLYLQMNSLRAEDTAVYYCARETVRGVYFDYWGQGTLVTVSS
VL: DIQMTQSPGTLSLSPGERATLSCRASQSVNSRFLAWYQQKPGQAPRLLIYSTSTRATGIPDRFSGSGSGTDFTLTISRLEPEDFAVYYCQRYGSSPTWTFGQGTKVEIK
As for B17, the binding result was “binds”.

B18: M0039-D10 Fab (Fab, V domains shown)
VH: EVQLLESGGGLVQPGGSLRLSCAASGFTFSMYNMAWVRQAPGKGLEWVSWIYSSGGLTLYADSVKGRFTISRDNSKNTLYLQMNSLRAEDTAVYYCAKGSNTYYFDASGLGAFNMWGQGTMVTVSS
VL: DIQMTQSPDTVSFSPGERASLSCRASQSVRSDLAWYQQKPGQAPRLLIYGASNRATGIPVRFSGSGSGTDFTLTISRLEPEDFAVYYCQQYGSSPLFTFGPGTKVDIK
In the case of B18, the binding result is given as “binds”.

B19: M0040-B06 Fab (Fab, V domains shown)
VH: EVQLLESGGGLVQPGGSLRLSCAASGFTFSVYPMVWVRQAPGKGLEWVSYISPSGGFTFYADSVKGRFTISRDNSKNTLYLQMNSLRAEDTAVYYCARVPGGSRQDFDIWGQGTMVTVSS
VL: QYELTQPPSASGTPGQRVTISCSGSSSNIGRNYVYWYQQVPGTAPKLLIYSNNQRPSGVPDRFSGSKSGTSASLVISGLRSEDEADYYCAAWDASLRGVFGGGTKLTVL
As to B19, the binding entry is on record as “binds”.

B20: M0030-A04 Fab (Fab, V domains shown)
VH: EVQLLESGGGLVQPGGSLRLSCAASGFTFSVYEMNWVRQAPGKGLEWVSSIYSSGGRTDYADSVKGRFTISRDNSKNTLYLQMNSLRAEDTAVYYCAREAHYYDSSGPPDYWGQGTLVTVSS
VL: QSELTQPPSASGTPGQRVTISCSGSSSNIGINFVTWYQQLPGTAPKLLIYTNNQRPSGVPDRFSSSKSGASASLAISGLQSEDEAAYYCAAWDDNLNGPVFGGGTKLTVL
In the case of B20, the binding result was “binds”.

B21: M0037-H09 Fab (Fab, V domains shown)
VH: EVQLLESGGGLVQPGGSLRLSCAASGFTFSRYWMDWVRQAPGKGLEWVSSIRSSGGMTGYADSVKGRFTISRDNSKNTLYLQMNSLRAEDTAVYYCARHRTGRGAFDIWGQGTTVTVSS
VL: DIQMTQSPLSLPVTPGEPASISCRSSQSLLHGNGNNYLDWYLQKPGQSPQLLIYLGSNRASGVPDRFSGSGSGTDFTLKISSVEAEDVGVYYCMQGLQTPHTFGQGTQLEIK
For B21, the binding result is reported as “binds”.

The values above are taken from US7745587.
